US6743363B2, “Method of bacteriostasis or disinfection for permselective membrane” (Toray Industries, Inc., priority 1998, dated 2004)
Where two headings read alike, the source gives them in different places.

Tests used:
[1] = Pressure loss in membrane separation unit during seawater desalination

Row | Compound | NaHSO3 Consumption (Example 2: sulfuric acid pH 3 to 4, 30 min/day, 35 ppm before treatment) [ppm] | NaHSO3 Consumption (Example 5: sulfuric acid pH 2.5 (11, 12 & 20th day) and pH 3 (14, 27th), 30 min/day, 21 ppm before treatment) [ppm] | Increase in Pressure Loss ([1]; Example 1: sulfuric acid pH 3.5 to 4, 30 min/day, running days 1 to 30) | Increase in Pressure Loss ([1]; Example 1: sulfuric acid pH 3.5 to 4, 30 min/day, running days 1 to 30, listed as sulfuric acid) | Increase in Pressure Loss ([1]; Example 2: sulfuric acid pH 3 to 4, 30 min/day, after 10 days without RO disinfection, compared with the original value) [MPa] | Increase in Pressure Loss ([1]; Example 3: sulfuric acid pH 4.0, 60 min/day, running days 1 to 30, intermittent Cl microbicide pre-treatment) | Increase in Pressure Loss ([1]; Example 3: sulfuric acid pH 4.0, 60 min/day, running days 1 to 30, intermittent Cl microbicide pre-treatment, listed as sulfuric acid) | Increase in Pressure Loss ([1]; Example 4: sulfuric acid pH 3.0, 60 min/day, running days 51 to 58) [MPa] | pressure loss decreased by ([1]; Example 4: sulfuric acid pH 3, 1 hour a day, after 8 days) [MPa] | Increase in Pressure Loss ([1]; Example 4: sulfuric acid pH 4.0, 60 min/day, running days 79 to 90) [MPa] | pressure loss decreased by ([1]; Example 4: sulfuric acid pH 4, 1 hour a day, after 12 days) [MPa] | Increase in Pressure Loss ([1]; Example 3: NaHSO3 500 ppm, 60 minutes a week, running days 1 to 30, continuous Cl microbicide pre-treatment, listed as NaHSO3) [MPa] | Increase in Pressure Loss ([1]; Example 3: NaHSO3 500 ppm, 60 minutes a week, running days 1 to 30, continuous Cl microbicide pre-treatment, listed as sodium bisulfite)
1 | O=S(=O)(O)O [Sulfuric Acid, sulfuric acid] | 8 | 10 | No | did not change | 0.01 | No | changed little | −0.015 | 0.015 | −0.012 | 0.012 |  | 
2 | O=S([O-])O.[Na+] [Sodium Bisulfite, sodium bisulfite, reference compound] |  |  |  |  |  |  |  |  |  |  |  | 0.02 | about 0.02 MPa
